PubChem BioAssay AID1259254, NCATS – 2017
This is one part, drawn at random, of about 59,000 reagents tested. About 1,550 of all reagents (2.6%) were called active. 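G2 share is only a proxy for re-replication; each gene was hit by three separate siRNAs, and active genes were retested.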 Reagents against one gene are numbered here. Not all columns of the deposit are shown. Not given: the amount of reagent.

- Purpose: 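Genome-wide screen for genes that prevent DNA re-replication in cancer cells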 (primary screen)
- Cells: human HCT116 colorectal cancer cells
- Knock-down reagent: single siRNA against human genes
- Timing: 3 days
- Read-out: 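Imaged Hoechst DNA stain sorts each cell into a cycle phase by DNA amount; per plate, G2 fraction set to 0% for non-targeting and 100% for GMNN siRNA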
- Scale: G2 robust z-score: higher = more G2 cells, more excess DNA replication
- Active means: 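An siRNA counts as active if its G2 robust z-score lies at least 5 MADs above the screen median; here such calls match roughly 38% of GMNN control or more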

PGM3 (GeneID 5238) #1 gave G2 robust z-score -0.444; inactive. PGM3 (GeneID 5238) #2 showed G2 robust z-score 0.956; inactive. PGM3 (GeneID 5238) #3 scored G2 robust z-score 0.314; inactive. FARS2 (GeneID 10667) #1 showed G2 robust z-score -0.473; inactive. Depletion of FARS2 (GeneID 10667) #2 came out at: G2 robust z-score 1.38; inactive. Against FARS2 (GeneID 10667) #3, the entry reads G2 robust z-score 2.99; inactive.

For PDE6H (GeneID 5149) #1, the values are G2 robust z-score 3.4; inactive. For PDE6H (GeneID 5149) #2 the deposit lists G2 robust z-score -0.465; inactive. With knock-down of PDE6H (GeneID 5149) #3, the screen gave G2 robust z-score -0.0962; inactive. With knock-down of FMN2 (GeneID 56776) #1, the screen gave G2 robust z-score -0.151; inactive. Knock-down of FMN2 (GeneID 56776) #2 resulted in: G2 robust z-score -0.898; inactive. FMN2 (GeneID 56776) #3 showed G2 robust z-score -0.77; inactive.

Depletion of GABRA2 (GeneID 2555) #1 came out at: G2 robust z-score -0.223; inactive. Knock-down of GABRA2 (GeneID 2555) #2 gave: G2 robust z-score 0.832; inactive. Knock-down of GABRA2 (GeneID 2555) #3 came out at: G2 robust z-score 0.484; inactive. Against TEX56P (GeneID 404220) #1 the deposit lists G2 robust z-score -0.408; inactive. Silencing of TEX56P (GeneID 404220) #2 gave: G2 robust z-score -0.575; inactive. TEX56P (GeneID 404220) #3 scored G2 robust z-score 0.327; inactive.

TMEM52 (GeneID 339456) #1 scored G2 robust z-score 0.63; inactive. TMEM52 (GeneID 339456) #2 scored G2 robust z-score -0.14; inactive. TMEM52 (GeneID 339456) #3 showed G2 robust z-score 0.605; inactive. Silencing of PRPS1L1 (GeneID 221823) #1 resulted in: G2 robust z-score -0.703; inactive. With knock-down of PRPS1L1 (GeneID 221823) #2, the record shows G2 robust z-score -0.846; inactive. With knock-down of PRPS1L1 (GeneID 221823) #3 the results were G2 robust z-score -0.619; inactive.

Knock-down of LOC728254 (retired record) (GeneID 728254) #1 resulted in: G2 robust z-score 0.0268; inactive. For LOC728254 (retired record) (GeneID 728254) #2, the values are G2 robust z-score 0.248; inactive. With knock-down of LOC728254 (retired record) (GeneID 728254) #3 the results were G2 robust z-score -0.697; inactive. Silencing of FITM2 (GeneID 128486) #1 came out at: G2 robust z-score 0.111; inactive. Against FITM2 (GeneID 128486) #2, the values are G2 robust z-score 0.33; inactive. FITM2 (GeneID 128486) #3 scored G2 robust z-score -0.634; inactive.

Targets above whose target name starts with T or t:
TEX56P (GeneID 404220) #1 — G2 robust z-score: -0.408; outcome: inactive
TEX56P (GeneID 404220) #2 — G2 robust z-score: -0.575; outcome: inactive
TEX56P (GeneID 404220) #3 — G2 robust z-score: 0.327; outcome: inactive
TMEM52 (GeneID 339456) #1 — G2 robust z-score: 0.63; outcome: inactive
TMEM52 (GeneID 339456) #2 — G2 robust z-score: -0.14; outcome: inactive
TMEM52 (GeneID 339456) #3 — G2 robust z-score: 0.605; outcome: inactive
